Data from paper PMC7819943, “Rice protein-binding microarrays: a tool to detect cis-acting elements near promoter regions in rice”.
The list shows a part of the results.

Chains of the proteins cited; added tags and fusions are not shown.
UniProt Q0JBA9, entry or part of it: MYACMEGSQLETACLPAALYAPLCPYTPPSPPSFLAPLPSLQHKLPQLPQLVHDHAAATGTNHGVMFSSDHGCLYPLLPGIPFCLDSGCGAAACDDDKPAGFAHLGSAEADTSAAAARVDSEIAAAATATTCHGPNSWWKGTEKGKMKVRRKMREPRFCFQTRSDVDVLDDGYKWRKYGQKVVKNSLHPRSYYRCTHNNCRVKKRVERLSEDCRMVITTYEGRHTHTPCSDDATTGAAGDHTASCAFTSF

biological target: OsWRKY34 (Oryza sativa, UniProt Q0JBA9 1-250); assay: protein-binding microarray (RPBM); PBS, 2% BSA, 51.3 ng/ul salmon testes DNA, 50 uM zinc acetate, 200 nM TF, 25 C, 1 h; high values mean tight binding; settings: protein: recombinant; tags: N-terminal polyhistidine and DsRed monomer fusion (pET32a); label: CyDye5-dUTP incorporated in the synthesized complementary strand; 3' TTTTT single-stranded linker to array surface; dsDNA, one strand shown
Summary of the method: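 Binding signal here means per-feature fluorescence intensity in arbitrary units. The values were read on an Axon 4000B scanner after a custom Agilent array, double-stranded by primer extension with Cy5-dUTP, was incubated with 200 nM protein at 25 °C for 1 h in PBS with 2% BSA, salmon testes DNA and 50 µM zinc acetate, then washed. The proteins were transcription factors with an N-terminal polyhistidine tag and DsRed, expressed in E. coli BL21-CodonPlus and purified on Ni–NTA.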

Sequence | binding signal
TTTTCACCCTGTTTGCACTTGGCACTTTTACAATTCACACCGGAGTCACCTAGTGCAG | 9840 fluorescence intensity (a.u.)
TTCTTGGTGTCGGTGTGCCTGGTGCTGGTGACGCGCCATGCGGAGTCACCTAGTGCAG | 8120 fluorescence intensity (a.u.)
CTAGCACAAGACACCAAGCACCCATGCACACGCTTCCTATCGGAGTCACCTAGTGCAG | 9180 fluorescence intensity (a.u.)
TCCCCGAATTCTCCCGCAGCCCAACATTTCATTCAACCACCGGAGTCACCTAGTGCAG | 10700 fluorescence intensity (a.u.)
TACTTTACTTTACATCATTTACTAAGTACATGTACTTTTTCGGAGTCACCTAGTGCAG | 8860 fluorescence intensity (a.u.)
TTTCCTTTCACCTTTGTCTAGTGGTATTCTCTGATCAGGCCGGAGTCACCTAGTGCAG | 10100 fluorescence intensity (a.u.)
TCAAGACTTATTAATTGGCCGTTTTTCCCTTTTGTCTCGGCGGAGTCACCTAGTGCAG | 8450 fluorescence intensity (a.u.)
TTATGTAGCATCCTGAGTTTGACTCCTTTACTTAAAAACGCGGAGTCACCTAGTGCAG | 8630 fluorescence intensity (a.u.)
CATCTCTGCCTCACTCTTCTCCACACTAACACCCAAGATGCGGAGTCACCTAGTGCAG | 9030 fluorescence intensity (a.u.)
TGCGCTTCGCCACTCTCCACCACCCTACGCTCTGGCCTCGCGGAGTCACCTAGTGCAG | 8580 fluorescence intensity (a.u.)
CAACTCTGCGTCGCCTTCTATTCTCTTCTCTCTTCTCTCTCGGAGTCACCTAGTGCAG | 13600 fluorescence intensity (a.u.)
GCATATAATTAGTTTACCATGGCTTTAATCAATCATATGCCGGAGTCACCTAGTGCAG | 29300 fluorescence intensity (a.u.)
TCCTGTGTTCTTGTTGTTGTTCGTCAGAGACGCTGATCGACGGAGTCACCTAGTGCAG | 9680 fluorescence intensity (a.u.)
CATTATCCGTCCATATTCGCTCTGTTTTCACTCCTACTCACGGAGTCACCTAGTGCAG | 12000 fluorescence intensity (a.u.)
GTCGGCTGCCTTTTGAAGCTCTCATGACGCATCTTCCTTTCGGAGTCACCTAGTGCAG | 8720 fluorescence intensity (a.u.)
GAGCTATCCTTGGTTTTTCTGATCCACTGCATGCGCTAGTCGGAGTCACCTAGTGCAG | 8830 fluorescence intensity (a.u.)
CGTTTGCTGCGTTATCACCTCTCCTTGGCTCTTCTCTTATCGGAGTCACCTAGTGCAG | 8740 fluorescence intensity (a.u.)
GTTCATTTACTCATTTTTCTGTGGTTGAAAAATACCAAGACGGAGTCACCTAGTGCAG | 10200 fluorescence intensity (a.u.)
GCCGCCAACGCGCTCAAGGGCCACCTCGTCGCCTTCGGCCCGGAGTCACCTAGTGCAG | 8160 fluorescence intensity (a.u.)
CACACGGCGACCTCATCGGCTCATCCTCCTCGATTCCGGCCGGAGTCACCTAGTGCAG | 8350 fluorescence intensity (a.u.)

Two consecutive records out of the list so far:
Sequence | binding signal
CTAGCACAAGACACCAAGCACCCATGCACACGCTTCCTATCGGAGTCACCTAGTGCAG | 9180 fluorescence intensity (a.u.)
TCCCCGAATTCTCCCGCAGCCCAACATTTCATTCAACCACCGGAGTCACCTAGTGCAG | 10700 fluorescence intensity (a.u.)

Remaining list, next part:

Sequence | binding signal
CTCTCTCTCTCTCTCTCTCTCTGCTGTTTTCTGTATCTGACGGAGTCACCTAGTGCAG | 10100 fluorescence intensity (a.u.)
GTAAGGTTTAGTTATAAAAATTTTTTCACCGGGTTTCTGACGGAGTCACCTAGTGCAG | 11000 fluorescence intensity (a.u.)
GCGTTCGTTCCATCCAACACTACAGAAATTTTTAGCGCACCGGAGTCACCTAGTGCAG | 8130 fluorescence intensity (a.u.)
CGCCGCTGTATCTCCTAGCCCAGGCTGCCCAGCTCTGACACGGAGTCACCTAGTGCAG | 8150 fluorescence intensity (a.u.)
GGTGGCGCTGCCGCGGTTGACCAATTCTTGTTTCCCGGCTCGGAGTCACCTAGTGCAG | 10500 fluorescence intensity (a.u.)
CTCTTCATGTCGCCGGCACATATCCACCACCGGCTCCAACCGGAGTCACCTAGTGCAG | 8890 fluorescence intensity (a.u.)
GGTTCCTCAGTAGTGTGTGTTGTCTGTGCGTGAGCTCCCACGGAGTCACCTAGTGCAG | 13000 fluorescence intensity (a.u.)
AATCACTAGTTCCTGTTCTGTACTTTTGAGGGAGAGTCGACGGAGTCACCTAGTGCAG | 8290 fluorescence intensity (a.u.)
GGATCTCGCATCTCCTCTTAACCATGGGCTGTGAGCGACGCGGAGTCACCTAGTGCAG | 8530 fluorescence intensity (a.u.)
CCTCTCCTCTTCTTCTCTCTTCACTCGTGTTGAAATTGAACGGAGTCACCTAGTGCAG | 8450 fluorescence intensity (a.u.)
CTCTTTTCTGCTGTACGATCATTCAGTATCCACGTGCTTACGGAGTCACCTAGTGCAG | 8880 fluorescence intensity (a.u.)
ATTTCCCGACCTTATAGCAGGTACAATAACAGACTATTAGCGGAGTCACCTAGTGCAG | 8380 fluorescence intensity (a.u.)
GCTGAGTCTATGGTTTTTGTGGGCCATTGTGCTATCGATGCGGAGTCACCTAGTGCAG | 9850 fluorescence intensity (a.u.)
GGTGAGCTGGCTTTTCCACACTTCTAATTTCCTAAACTCACGGAGTCACCTAGTGCAG | 8810 fluorescence intensity (a.u.)
CTCGTCTCCTCCGCTCCTTGCGCCATCTCGCGGCTGAACACGGAGTCACCTAGTGCAG | 9180 fluorescence intensity (a.u.)
ACCCGCATAAAAACCCTCTTGTTAGTGTATTTTCTACCTGCGGAGTCACCTAGTGCAG | 8730 fluorescence intensity (a.u.)
CGCTTGTGTTATTTGTCAGTTTACCATCTCAGTTTTCTTACGGAGTCACCTAGTGCAG | 9080 fluorescence intensity (a.u.)
TGGTTCATACAATTCAATCATTTCGTTGTCTAATTTTATTCGGAGTCACCTAGTGCAG | 11200 fluorescence intensity (a.u.)
GATCAGTGGGGCGTGGGTACAATCACAGATTGCCGAAATTCGGAGTCACCTAGTGCAG | 13500 fluorescence intensity (a.u.)
ACTTTTTAGTGCGTATTTGACTATTCGTCTTATTTAAAAACGGAGTCACCTAGTGCAG | 9800 fluorescence intensity (a.u.)

Sequence | binding signal
AACGGTTGCAGCTCTAATTGAGGGCTTTGTTTAGTTCATGCGGAGTCACCTAGTGCAG | 8640 fluorescence intensity (a.u.)
ATTCTTGCAGTCGTGTGTGCACCTAGCCATTTTCCTACTGCGGAGTCACCTAGTGCAG | 8060 fluorescence intensity (a.u.)
GTCTCCTCTTGCAAGGAAATTGTTAAAAGTTCTTCCTTATCGGAGTCACCTAGTGCAG | 8940 fluorescence intensity (a.u.)
GTTGTGTTGTGATGGATGACTTAATGGAAGTACTTCCGCACGGAGTCACCTAGTGCAG | 8930 fluorescence intensity (a.u.)
CCTATGTTTTGTGATGGGGATTTAGTTTTATCCTTTTATTCGGAGTCACCTAGTGCAG | 9750 fluorescence intensity (a.u.)
CTCTCTTCGCGTTGCTGCCTAATGCGGTCTTAAGTGAGTACGGAGTCACCTAGTGCAG | 8610 fluorescence intensity (a.u.)
TTGGTATGGTATCTTGTTTCTCTGGCCAGAATCTGCACCACGGAGTCACCTAGTGCAG | 10400 fluorescence intensity (a.u.)
CATCTTCTTCGTGTGTGCAGTGTGCGAGTAACTCGACTCGCGGAGTCACCTAGTGCAG | 9390 fluorescence intensity (a.u.)
ACGCGGTGCGACGACTCCGCCGAACACGAATACTTCTCCTCGGAGTCACCTAGTGCAG | 8940 fluorescence intensity (a.u.)
CCACATCCCATTATACAAGACTGTGGTATTTCCTCTGAGTCGGAGTCACCTAGTGCAG | 9080 fluorescence intensity (a.u.)
CCGTTGCTGCCCATTTGCATCCTGCAGCATATTCCTGTCCCGGAGTCACCTAGTGCAG | 9730 fluorescence intensity (a.u.)
CATACCAATACGGCCAATTGGCAACTGCTCATCGGAATATCGGAGTCACCTAGTGCAG | 8280 fluorescence intensity (a.u.)
GGTAGGGCTGCCGCCGGTGGGTAGGGGTGGTGGATTTTTTCGGAGTCACCTAGTGCAG | 14400 fluorescence intensity (a.u.)
ATATTGCATTTTGCAGTCTTTGCTTTTCAGTTACGTTCTCCGGAGTCACCTAGTGCAG | 11900 fluorescence intensity (a.u.)
GTAAAATTGCATCCCGACCGGTCCCCAACTCTGACTGTCCCGGAGTCACCTAGTGCAG | 8240 fluorescence intensity (a.u.)
CATTTTTCGATTTTCGTTGCTCGAGCGCGCTCATTTCCCTCGGAGTCACCTAGTGCAG | 11800 fluorescence intensity (a.u.)
GCACAATACGCCCATGTCATGCGTTAGTTTCGAGCCAATTCGGAGTCACCTAGTGCAG | 9430 fluorescence intensity (a.u.)
ATATATATAACACAGGCATCCACATCTTCCTTTTTCTCAACGGAGTCACCTAGTGCAG | 9850 fluorescence intensity (a.u.)
GTCTTTGTTGCTTCCTGCGGTAAGTTTAACTGTTCTACATCGGAGTCACCTAGTGCAG | 9890 fluorescence intensity (a.u.)
TTAATACATTATTATAACCACTGTTGTCGTTGCCGAGGTCCGGAGTCACCTAGTGCAG | 8310 fluorescence intensity (a.u.)
